# Construct, isoform or probe ends are uncertain for at least one entry. For some assays here: A negative result means that nothing was seen under these conditions. For some assays here: At least one verdict rests on a figure or table, not on a statement of the authors.
# Protein sequences, listed by entry. Tags and fused reporters are not part of them. Lines headed by an entry give the natural chain unless they say otherwise; changes in a name come on top.
# UniProt Q8W4L5: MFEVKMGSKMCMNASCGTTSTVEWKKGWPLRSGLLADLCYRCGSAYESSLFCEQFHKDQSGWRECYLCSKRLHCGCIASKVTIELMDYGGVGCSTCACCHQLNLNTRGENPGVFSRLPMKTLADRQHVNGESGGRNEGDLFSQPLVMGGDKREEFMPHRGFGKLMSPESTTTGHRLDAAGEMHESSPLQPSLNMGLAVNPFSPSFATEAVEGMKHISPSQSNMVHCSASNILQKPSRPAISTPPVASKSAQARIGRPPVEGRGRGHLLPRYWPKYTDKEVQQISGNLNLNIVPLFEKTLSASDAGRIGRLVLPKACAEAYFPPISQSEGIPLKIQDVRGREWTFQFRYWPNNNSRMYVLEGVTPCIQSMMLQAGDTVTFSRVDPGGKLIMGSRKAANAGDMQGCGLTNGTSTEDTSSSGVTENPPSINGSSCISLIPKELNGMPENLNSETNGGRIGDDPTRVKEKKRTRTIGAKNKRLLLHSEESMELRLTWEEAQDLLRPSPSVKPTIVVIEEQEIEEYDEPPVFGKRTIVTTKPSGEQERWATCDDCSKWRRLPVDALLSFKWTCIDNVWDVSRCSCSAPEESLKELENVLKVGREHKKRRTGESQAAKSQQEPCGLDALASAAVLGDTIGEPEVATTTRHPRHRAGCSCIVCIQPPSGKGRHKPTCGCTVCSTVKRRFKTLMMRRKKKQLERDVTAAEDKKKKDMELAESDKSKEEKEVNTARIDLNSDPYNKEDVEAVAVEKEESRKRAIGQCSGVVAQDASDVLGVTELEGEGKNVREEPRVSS
# Columns and labels:
# [1] = target: GST-VAL1B3 (Arabidopsis thaliana) (UniProt Q8W4L5); test: competition with a labelled probe; settings: 10 mM Tris pH 7.5, 50 mM KCl, 1 mM DTT, 2.5% glycerol, 5 mM MgCl2, 0.025% NP-40, 20 uL, 2 uL of 1 uM probe, 25 min room temperature, 1.6% agarose gel in 0.5x TBE, recombinant protein, protein details: GST
# [2] = target: GST-VAL1B3 (Arabidopsis thaliana) (UniProt Q8W4L5); test: EMSA; settings: 10 mM Tris pH 7.5, 50 mM KCl, 1 mM DTT, 2.5% glycerol, 5 mM MgCl2, 0.025% NP-40, 20 uL; 2 uL of 1 uM probe; 25 min room temperature; 1.6% agarose gel in 0.5x TBE; recombinant protein; protein details: GST; label: TYE665 on sense strand (5')
# GST (free tag control) = test: EMSA; settings: 10 mM Tris pH 7.5, 50 mM KCl, 1 mM DTT, 2.5% glycerol, 5 mM MgCl2, 0.025% NP-40, 20 uL; 2 uL of 1 uM probe; 25 min room temperature; 1.6% agarose gel in 0.5x TBE; recombinant protein; protein details: GST; label: TYE665 on sense strand (5')
sequence,measurement,setting,value
TCAATTTTGTTTTCTTGTGATGTGCATGGAGTAAGAAGAGTGAAAGCAGA (double strand) [BOP2-B3-2 unlabeled competitor],binding result,[1]; 25x and 50x molar excess against labeled BOP2 probe,binds
TCAATTTTGTTTTCTTGTGATGTGCATGGAGTAAGAAGAGTGAAAGCAGA (double strand) [BOP2-TYE665-dsDNA (BOP2-B3-2)],binding result,[2],binds
TTAATCATTCATTCTGCGATTTTGCATGATATTAGTAATCGCATATTTGT (double strand) [BOP1-B3-2 unlabeled competitor],binding result,[1]; 25x and 50x molar excess against labeled BOP1 probe,binds
TTAATCATTCATTCTGCGATTTTGCATGATATTAGTAATCGCATATTTGT (double strand) [BOP1-TYE665-dsDNA (BOP1-B3-2)],binding result,GST (free tag control),no binding
same,binding result,[2],binds

# Reference: PMC12152480
